The text below walks through data of patent US20210364527A1.

No constants are given. Whether binding was seen depends on the method and setting. Some binding calls cover weakened binding; strength is not graded here. For some assays here: Where a sequence is shown, tags or fusion partners need not be part of it.

For assay [1], the target named is T1, FITC-labeled KA peptide …-FITC.
T1 sequence (peptide, C-terminal FITC): KAKLDEESILKQK
The experiment in a line: fluorescence polarization titration. Background: Polarisation of emitted light reports the rotation of a fluorescent probe.

The target of assay [2] is T2, FITC-labeled RA peptide …-FITC.
T2 sequence (peptide, C-terminal FITC): RAKLDEESILKQK
The experiment in a line: single point fluorescence polarization, FITC-peptide with UBR-streptavidin complex.

Assay [3] has the same target. The experiment in a line: fluorescence polarization titration.
Assay [4] shares this target. In words: fluorescence polarization, single point.

B1: Kluyveromyces lactis UBR-box domain (PS528) (protein)
chain: MHSKFNHAGRICGAKFRVGEPIYRCKECSFDDTCVLCVNCFNPKDHVGHHVYTSICTEFNNGICDCGDKEAWNHELNCKGAED
For the molecule B1, the binding result in assay [1] and in assay [2] was “binds” throughout.

B2: Vombatus ursinus UBR-box domain (PS522) (protein)
chain: MLCGKVFKSGETTYSCRDCAIDPTCVLCMNCFQSSVHKNHRYKMHTSTGGGFCDCGDTEAWKTGPFCTIHEP
On to B2, for which the binding result in assay [3] and in assay [1] was “binds” throughout.

B3: Saccharomyces cerevisiae UBR-box domain (PS538) (protein)
chain: MGDVHKHTGRNCGRKFKIGEPLYRCHECGCDDTCVLCIHCFNPKDHVNHHVCTDICTEFTSGICDCGDEEAWNSPLHCKAEEQ
As to B3, the binding entry in assay [4] is “binds”.
